The results in this text go back to paper PMC12721901.

The chains behind the UniProt entries cited, without tags or fusion partners. Where a name states a change or a piece, a line headed by the entry shows the natural chain unless it says otherwise.
UniProt Q15910: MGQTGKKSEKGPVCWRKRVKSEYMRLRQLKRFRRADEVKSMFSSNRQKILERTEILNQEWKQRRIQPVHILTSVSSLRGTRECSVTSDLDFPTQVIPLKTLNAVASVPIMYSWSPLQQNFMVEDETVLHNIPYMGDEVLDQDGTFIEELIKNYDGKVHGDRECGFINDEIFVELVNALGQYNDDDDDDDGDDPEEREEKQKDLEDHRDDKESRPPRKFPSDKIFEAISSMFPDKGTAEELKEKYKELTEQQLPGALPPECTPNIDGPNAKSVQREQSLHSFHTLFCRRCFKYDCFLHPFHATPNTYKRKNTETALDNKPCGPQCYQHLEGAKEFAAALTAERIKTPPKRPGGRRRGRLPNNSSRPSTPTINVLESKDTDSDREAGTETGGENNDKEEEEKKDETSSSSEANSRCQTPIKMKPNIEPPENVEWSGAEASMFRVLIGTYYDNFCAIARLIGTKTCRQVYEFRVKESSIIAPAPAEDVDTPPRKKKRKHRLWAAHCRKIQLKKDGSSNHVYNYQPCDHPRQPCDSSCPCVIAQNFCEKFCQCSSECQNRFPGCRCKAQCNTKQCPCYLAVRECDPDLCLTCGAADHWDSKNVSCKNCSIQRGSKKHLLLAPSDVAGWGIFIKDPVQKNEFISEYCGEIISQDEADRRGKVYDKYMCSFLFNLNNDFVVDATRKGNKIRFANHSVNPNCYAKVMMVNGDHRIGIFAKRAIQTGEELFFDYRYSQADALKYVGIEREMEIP
UniProt Q9UPT9: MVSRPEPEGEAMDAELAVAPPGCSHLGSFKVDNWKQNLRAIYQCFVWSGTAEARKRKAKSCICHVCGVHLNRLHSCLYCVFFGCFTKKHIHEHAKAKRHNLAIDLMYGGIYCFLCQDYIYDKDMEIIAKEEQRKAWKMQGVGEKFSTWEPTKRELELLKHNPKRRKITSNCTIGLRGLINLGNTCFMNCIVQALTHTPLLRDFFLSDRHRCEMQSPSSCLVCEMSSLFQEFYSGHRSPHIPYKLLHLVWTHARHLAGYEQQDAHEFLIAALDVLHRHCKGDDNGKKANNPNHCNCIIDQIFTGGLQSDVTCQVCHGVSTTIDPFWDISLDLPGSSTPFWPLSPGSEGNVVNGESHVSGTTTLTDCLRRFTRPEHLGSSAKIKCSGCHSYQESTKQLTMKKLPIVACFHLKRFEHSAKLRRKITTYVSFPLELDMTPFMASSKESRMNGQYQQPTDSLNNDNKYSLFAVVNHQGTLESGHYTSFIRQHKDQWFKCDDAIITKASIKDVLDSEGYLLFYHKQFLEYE

These are yes or no findings as the source states them, for the method shown. In cells and extracts the contact can be indirect. A result given as binding can be weak or reduced; the word gives no strength.

The target in this test is Flag-tagged EZH2 (UniProt Q15910). Kind of test: co-IP; transiently transfected HEK-293T cells (Myc-USP22 or its mutants with FLAG-EZH2), immunoblot. (In western blotting, separated proteins are transferred to a membrane and probed.)

On to “USP22 with mutation of the critical cysteines in the zinc finger structure (from UniProt Q9UPT9) (enzyme)”, for which the binding result is reported as “binds”.
